Values of other authors in patent US11738120B1, “Synthesis of taurolidine, purity profiles and polymorphs” (CorMedix Inc., priority 2022, dated 2023).
At least one compound was matched to its structure with a doubt left.

Details: cited from earlier work

## O=C(O)CCC(=O)C(=O)O [α-Ketoglutaric]
  Buffering Range: Acidic - Neutral
